{
  "source": "patent US11771766B2",
  "about": "“Drug delivery system containing phospholipid and cholesterol” (Taiwan Liposome Co., Ltd, priority 2009, dated 2023)",
  "test": "Vitreous DSP concentration after intravitreal injection, by UPLC (Example 8)",
  "format": "in vivo, Rabbits",
  "conditions": "2 h to 35 d after intravitreal injection, DSP dose 0.2 mg",
  "method": "Rabbits were injected intravitreally with either dexamethasone sodium phosphate (DSP) alone (control rabbits) or DSP mixed with a delivery vehicle containing DOPC/Cholesterol/DOPG at a ratio 67.5/25/7.5 (test rabbits). Both eyes of each rabbit were injected intravitreally with 50 μl of DSP or the DSP-delivery vehicle mixture at a DSP dose of 0.2 mg. Vitreous DSP concentrations of the control rabbits were examined by ultra-performance liquid chromatography (ACQUITY UPLC™) with a photodiode array (PDA) detector at 2 h, 1 d, 4 d, 8 d, and 15 d after the injection and those of the test rabbits were examined at 2 h, 1 d, 4 d, 8 d, 15 d, and 35 d post injection. Two eyes were examined for each time point.",
  "data": [
    {"smiles": "C[C@@H]1C[C@H]2[C@@H]3CCC4=CC(=O)C=C[C@]4(C)[C@@]3(F)[C@@H](O)C[C@]2(C)[C@@]1(O)C(=O)COP(=O)(O)O", "note": "[Dexamethasone sodium phosphate, dexamethasone sodium phosphate]", "values": [
      {"measurement": "vitreous concentration of DSP over time (in words, FIG. 3)", "value": "decreased very rapidly after injection"}
    ]}
  ]
}
